Reference: paper PMC5412822
Results are given in words; binding and its absence hold for the method and conditions named. Binding seen in cells or lysates may run through a third protein. Some entries that bind do so weakly or less than the wild type.

By UniProt entry, the sequences of proteins in these tests, tags left out.
UniProt Q96EP0: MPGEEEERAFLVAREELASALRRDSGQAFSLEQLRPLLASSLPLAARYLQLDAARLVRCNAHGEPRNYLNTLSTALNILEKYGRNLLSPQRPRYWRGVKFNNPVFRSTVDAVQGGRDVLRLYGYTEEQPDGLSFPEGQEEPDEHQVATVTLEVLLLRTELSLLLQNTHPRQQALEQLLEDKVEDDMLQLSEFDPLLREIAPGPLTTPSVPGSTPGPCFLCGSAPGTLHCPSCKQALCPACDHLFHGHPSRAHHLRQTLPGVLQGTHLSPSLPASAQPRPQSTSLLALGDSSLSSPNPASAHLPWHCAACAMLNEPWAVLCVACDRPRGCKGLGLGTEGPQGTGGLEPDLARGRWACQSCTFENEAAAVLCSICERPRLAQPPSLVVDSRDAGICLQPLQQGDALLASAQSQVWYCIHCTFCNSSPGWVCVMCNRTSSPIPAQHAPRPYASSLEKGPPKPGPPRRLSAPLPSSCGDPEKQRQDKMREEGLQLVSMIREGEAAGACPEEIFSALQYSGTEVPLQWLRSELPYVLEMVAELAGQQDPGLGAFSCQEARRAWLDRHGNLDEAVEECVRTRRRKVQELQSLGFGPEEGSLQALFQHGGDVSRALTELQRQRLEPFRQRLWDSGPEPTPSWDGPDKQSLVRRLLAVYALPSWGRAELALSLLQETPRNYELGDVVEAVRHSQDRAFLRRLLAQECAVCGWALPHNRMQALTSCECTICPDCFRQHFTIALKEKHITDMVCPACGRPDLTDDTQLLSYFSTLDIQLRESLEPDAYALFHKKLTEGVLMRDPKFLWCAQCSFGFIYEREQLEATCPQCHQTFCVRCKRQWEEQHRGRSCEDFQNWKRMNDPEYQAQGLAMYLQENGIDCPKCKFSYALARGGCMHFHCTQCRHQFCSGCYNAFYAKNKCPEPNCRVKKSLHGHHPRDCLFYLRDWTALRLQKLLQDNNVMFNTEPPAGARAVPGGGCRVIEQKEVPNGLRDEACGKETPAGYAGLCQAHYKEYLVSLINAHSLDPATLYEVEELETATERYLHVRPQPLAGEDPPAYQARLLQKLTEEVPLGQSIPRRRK
UniProt Q14790: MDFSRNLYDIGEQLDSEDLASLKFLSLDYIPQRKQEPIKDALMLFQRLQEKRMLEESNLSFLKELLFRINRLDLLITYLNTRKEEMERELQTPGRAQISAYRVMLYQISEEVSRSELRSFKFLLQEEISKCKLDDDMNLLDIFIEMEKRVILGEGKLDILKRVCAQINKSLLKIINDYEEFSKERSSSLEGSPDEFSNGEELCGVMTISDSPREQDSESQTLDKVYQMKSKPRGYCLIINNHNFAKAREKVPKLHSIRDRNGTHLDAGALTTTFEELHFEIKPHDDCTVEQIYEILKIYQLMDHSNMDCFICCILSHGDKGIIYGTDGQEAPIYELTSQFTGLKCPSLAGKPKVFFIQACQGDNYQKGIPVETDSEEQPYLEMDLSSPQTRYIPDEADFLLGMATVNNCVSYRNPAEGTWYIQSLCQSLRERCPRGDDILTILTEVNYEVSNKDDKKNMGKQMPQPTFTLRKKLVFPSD
UniProt Q13158: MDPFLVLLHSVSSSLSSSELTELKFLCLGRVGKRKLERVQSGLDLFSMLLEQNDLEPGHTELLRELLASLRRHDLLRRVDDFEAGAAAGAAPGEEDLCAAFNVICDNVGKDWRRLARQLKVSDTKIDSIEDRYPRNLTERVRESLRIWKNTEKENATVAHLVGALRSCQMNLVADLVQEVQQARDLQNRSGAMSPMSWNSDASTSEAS
UniProt Q9BYM8: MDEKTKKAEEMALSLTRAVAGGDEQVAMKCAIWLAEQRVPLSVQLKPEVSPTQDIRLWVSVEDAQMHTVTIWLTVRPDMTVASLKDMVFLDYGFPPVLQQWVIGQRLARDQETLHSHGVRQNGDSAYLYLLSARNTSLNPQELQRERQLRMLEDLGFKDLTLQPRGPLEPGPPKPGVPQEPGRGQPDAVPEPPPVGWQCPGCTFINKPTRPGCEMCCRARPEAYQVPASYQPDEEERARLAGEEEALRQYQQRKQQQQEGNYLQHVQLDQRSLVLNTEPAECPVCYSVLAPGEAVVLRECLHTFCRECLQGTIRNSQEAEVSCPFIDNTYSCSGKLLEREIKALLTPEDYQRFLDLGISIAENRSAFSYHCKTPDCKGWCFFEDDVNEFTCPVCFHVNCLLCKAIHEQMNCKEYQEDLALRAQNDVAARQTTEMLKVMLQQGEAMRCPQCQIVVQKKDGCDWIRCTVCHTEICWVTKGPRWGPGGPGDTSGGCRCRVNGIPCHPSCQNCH

Experiments:
HOIP‐TAP = HOIP‐TAP (UniProt Q96EP0); assay: co-IP; HOIP KO K562 or HeLa cells reconstituted with HOIP-TAP (or empty vector), pre-treated with zVAD for 1 h, stimulated with iz-TRAIL (1 μg/ml or 500 ng/ml) for 1 h; HOIP-TAP precipitated with anti-FLAG beads, Western blot
[1] = target: caspase‐8 (human (endogenous in HeLa, A549 and K562)) (UniProt Q14790); assay: co-IP; TRAIL complex II: HeLa cells stimulated with FLAG-lz-TRAIL (500 ng/ml); complex I-depleted lysates incubated overnight at 4°C with protein G beads coupled with anti-caspase-8 antibody (clone C20), Western blot

binding (HOIP‐TAP) | Substance | binding [1]
binds | FADD (from UniProt Q13158 1-208) | –
– | HOIL‐1 (from UniProt Q9BYM8 1-510) | binds
– | HOIP (from UniProt Q96EP0 1-1072) (enzyme) | binds
binds | caspase‐8 (from UniProt Q14790 1-479) (enzyme) | –
